Values quoted from earlier work in PMC3703823 (Clinical cancer research : an official journal of the …, 2011).

Molecular target: AAG
Details: cited from earlier work

Cc1ccc(NC(=O)c2ccc(CN3CCN(C)CC3)cc2)cc1Nc1nccc(-c2cccnc2)n1 [imatinib]
KD for AAG (corresponding to KA): 600 nM
